From patent US8658684B2, “Pharmaceutical composition and its use in the preparation of a medicament for the treatment of cerebrovascular diseases” (Jiangsu Simcere Pharmaceutical R & D Co., Ltd., priority 2008, dated 2014)
At least one structure is not confirmed: it was looked up by name or label, or the drawing left a doubt.

Assays:
[1] = test system: cerebral ischemia/reperfusion model rats; assay: Focal cerebral ischemia/reperfusion model, Edaravone versus combinations 2:1, 4:1, 9:1 (Example 18); assay type: in vivo, Wistar rats; conditions: F4,35=10.31, P=0.000
Method: 1.1 Animals: Healthy male Wistar rats weighing 280-320 g.
1.2 Drugs and Reagents: Edaravone for injection (2 mg/mL) of Example 1, and Edaravone+natural borneol for injection of Examples 5, 7 and 11.
Experimental methods and evaluation methods are the same as Example 13.

[2] = test system: MCAO cerebral ischemia/reperfusion model rats; assay: Middle cerebral artery occlusion (MCAO) cerebral ischemia/reperfusion model, internal carotid thread method (Example 17); assay type: in vivo, Wistar rats

`COCCOC(=O)C1=C(C)NC(C)=C(C(=O)OC(C)C)C1c1cccc([N+](=O)[O-])c1` (stereo not drawn) [Nimodipine] was tested, and the “neurological deficit symptoms compared with model group” value [1] was “significantly ameliorated”, the “cerebral infarction area compared with model group” value ([2]; F4,35=5.38, P=0.002, 1:2 ratio P=0.358) was “significantly reduced” and the “neurological deficit symptoms compared with model group” value ([2]; F4,35=14.59, P=0.000) was “significantly ameliorated”.
